Measurements reported in publication PMC11637432.
Results are given in words; binding and its absence hold for the method and conditions named. Binding seen in cells or lysates may run through a third protein. Some entries that bind do so weakly or less than the wild type. For some of these results: Tags and fused reporters may be left off the sequences shown. Values belong to the molecule of their own block, whether it stands above or below them.

Sequences of proteins named here, by UniProt entry; tags and fusion partners are left off.
UniProt P48436: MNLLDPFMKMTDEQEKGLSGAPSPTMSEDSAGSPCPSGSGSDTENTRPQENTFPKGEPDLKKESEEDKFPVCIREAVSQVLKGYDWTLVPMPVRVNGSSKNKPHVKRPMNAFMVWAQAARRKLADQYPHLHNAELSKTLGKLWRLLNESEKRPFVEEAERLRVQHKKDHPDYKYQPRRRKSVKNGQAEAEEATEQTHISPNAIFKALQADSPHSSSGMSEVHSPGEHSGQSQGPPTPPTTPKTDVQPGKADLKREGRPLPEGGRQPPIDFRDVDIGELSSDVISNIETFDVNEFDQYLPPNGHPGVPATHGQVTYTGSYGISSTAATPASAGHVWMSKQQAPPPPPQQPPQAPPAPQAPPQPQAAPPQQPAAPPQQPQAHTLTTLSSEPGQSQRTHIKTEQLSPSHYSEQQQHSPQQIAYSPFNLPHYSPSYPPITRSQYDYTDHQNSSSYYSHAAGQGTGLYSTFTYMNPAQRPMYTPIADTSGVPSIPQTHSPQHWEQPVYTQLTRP
UniProt O75030: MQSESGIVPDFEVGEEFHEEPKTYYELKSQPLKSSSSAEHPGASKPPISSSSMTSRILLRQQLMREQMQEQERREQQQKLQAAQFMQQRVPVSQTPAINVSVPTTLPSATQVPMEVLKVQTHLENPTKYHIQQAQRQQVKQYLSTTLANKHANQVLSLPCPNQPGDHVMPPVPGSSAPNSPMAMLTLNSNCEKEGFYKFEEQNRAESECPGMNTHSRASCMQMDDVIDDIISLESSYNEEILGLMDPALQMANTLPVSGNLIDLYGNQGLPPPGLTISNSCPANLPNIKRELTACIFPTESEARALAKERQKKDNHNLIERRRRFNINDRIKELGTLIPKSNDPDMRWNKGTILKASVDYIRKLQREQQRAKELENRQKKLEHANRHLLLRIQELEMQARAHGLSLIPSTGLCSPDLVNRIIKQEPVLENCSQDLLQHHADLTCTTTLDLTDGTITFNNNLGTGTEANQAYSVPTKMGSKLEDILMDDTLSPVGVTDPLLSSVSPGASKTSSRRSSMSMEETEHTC

Columns and labels:
GST-BBS2 = target: T1, GST-BBS2 (UniProt Q9BXC9); experiment: pull-down; GST-tagged BBSome proteins on Glutathione Sepharose 4B beads incubated with HEK293T lysate expressing MC1R-3×Flag, 4 h at 4°C; GST buffer (150 mM NaCl, 1 mM MgCl2, 50 mM Hepes, 1 mM EGTA, 0.5% Triton X-100, pH 7.4); only the target purified
T1 sequence: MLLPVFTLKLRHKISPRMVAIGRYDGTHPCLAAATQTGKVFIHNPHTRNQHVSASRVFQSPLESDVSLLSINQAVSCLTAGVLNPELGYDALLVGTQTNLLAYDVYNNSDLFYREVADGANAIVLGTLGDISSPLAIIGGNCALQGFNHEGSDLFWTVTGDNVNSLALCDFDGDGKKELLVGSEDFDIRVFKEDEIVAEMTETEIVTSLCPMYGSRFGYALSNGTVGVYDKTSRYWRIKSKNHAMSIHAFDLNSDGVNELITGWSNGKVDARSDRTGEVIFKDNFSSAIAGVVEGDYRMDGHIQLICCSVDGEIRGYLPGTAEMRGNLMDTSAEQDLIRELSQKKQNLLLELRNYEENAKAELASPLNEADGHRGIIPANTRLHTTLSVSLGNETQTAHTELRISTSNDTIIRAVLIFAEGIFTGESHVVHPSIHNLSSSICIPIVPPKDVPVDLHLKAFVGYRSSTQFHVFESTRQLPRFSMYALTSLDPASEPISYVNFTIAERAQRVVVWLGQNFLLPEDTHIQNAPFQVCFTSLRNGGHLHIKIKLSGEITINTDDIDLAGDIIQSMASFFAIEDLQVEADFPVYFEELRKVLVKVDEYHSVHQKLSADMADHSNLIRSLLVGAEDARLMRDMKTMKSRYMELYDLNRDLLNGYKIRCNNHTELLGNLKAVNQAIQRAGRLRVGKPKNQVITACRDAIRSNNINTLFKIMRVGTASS

Sox9-3×Flag = Sox9-3×Flag (UniProt P48436); experiment: co-IP; HEK293T cells transfected with Sox9-3×Flag and MITF-HA; immunoprecipitation with antibodies against Flag and against HA
C315S MC1R-3×Flag = target: T2, C315S MC1R-3×Flag (UniProt Q01726); experiment: co-IP; HEK293T cells transfected with variants of MC1R-3×Flag and BBS2-HA; immunoprecipitation with the Flag antibody
T2 sequence: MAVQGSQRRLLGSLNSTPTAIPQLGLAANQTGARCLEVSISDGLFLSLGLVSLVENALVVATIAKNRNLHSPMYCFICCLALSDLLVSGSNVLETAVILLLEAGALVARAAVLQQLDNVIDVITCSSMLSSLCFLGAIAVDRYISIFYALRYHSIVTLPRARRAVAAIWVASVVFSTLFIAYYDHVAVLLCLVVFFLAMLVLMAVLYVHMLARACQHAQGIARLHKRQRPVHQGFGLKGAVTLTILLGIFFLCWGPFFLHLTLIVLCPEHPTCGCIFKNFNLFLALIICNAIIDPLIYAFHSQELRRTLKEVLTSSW

MC1R-3×Flag = MC1R-3×Flag (UniProt Q01726); experiment: as above
MC1R-3×Flag R151C = target: T3, MC1R-3×Flag R151C (UniProt Q01726); experiment: as above
T3 sequence: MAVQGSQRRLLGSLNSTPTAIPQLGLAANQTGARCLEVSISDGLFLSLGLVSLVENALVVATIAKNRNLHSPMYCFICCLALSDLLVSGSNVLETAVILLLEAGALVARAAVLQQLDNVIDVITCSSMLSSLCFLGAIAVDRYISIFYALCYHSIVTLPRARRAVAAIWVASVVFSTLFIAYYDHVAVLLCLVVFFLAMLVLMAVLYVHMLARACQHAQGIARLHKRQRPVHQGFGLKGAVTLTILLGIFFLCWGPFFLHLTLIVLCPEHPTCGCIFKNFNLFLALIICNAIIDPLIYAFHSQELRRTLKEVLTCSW

MC1R-3×Flag R160W = target: T4, MC1R-3×Flag R160W (UniProt Q01726); experiment: as above
T4 sequence: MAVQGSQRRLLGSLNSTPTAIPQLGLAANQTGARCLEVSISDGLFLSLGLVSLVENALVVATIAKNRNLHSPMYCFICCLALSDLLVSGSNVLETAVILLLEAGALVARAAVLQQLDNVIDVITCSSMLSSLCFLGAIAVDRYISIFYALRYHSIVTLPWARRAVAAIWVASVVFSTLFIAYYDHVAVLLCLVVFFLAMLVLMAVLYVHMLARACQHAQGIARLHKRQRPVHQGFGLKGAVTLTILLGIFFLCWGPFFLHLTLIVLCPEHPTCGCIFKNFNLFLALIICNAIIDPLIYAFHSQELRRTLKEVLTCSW

MC1R-mEmerald = MC1R-mEmerald (UniProt Q01726); experiment: co-IP; A375 MC1R-KO cells transfected with MC1R-mEmerald; UV then with or without 100 nM α-MSH for 36 h without serum; with or without BBS2 shRNAs; lysis in 50 mM Tris, 1% Triton X-100, 0.5 mM EDTA, 0.5 mM EGTA, 150 mM NaCl, 10% glycerol, pH 7.4; blots for endogenous BBSome proteins

binding (GST-BBS2): binds
Molecule: MC1R-3×Flag (from UniProt Q01726 1-317) (receptor)

binding (Sox9-3×Flag): binds
Molecule: MITF-HA (from UniProt O75030 1-526)

binding (C315S MC1R-3×Flag): binds | binding (MC1R-3×Flag): binds | binding (MC1R-3×Flag R151C): binds | binding (MC1R-3×Flag R160W): binds
B1: BBS2-HA (protein, UniProt Q9BXC9 1-721)
chain: MLLPVFTLKLRHKISPRMVAIGRYDGTHPCLAAATQTGKVFIHNPHTRNQHVSASRVFQSPLESDVSLLSINQAVSCLTAGVLNPELGYDALLVGTQTNLLAYDVYNNSDLFYREVADGANAIVLGTLGDISSPLAIIGGNCALQGFNHEGSDLFWTVTGDNVNSLALCDFDGDGKKELLVGSEDFDIRVFKEDEIVAEMTETEIVTSLCPMYGSRFGYALSNGTVGVYDKTSRYWRIKSKNHAMSIHAFDLNSDGVNELITGWSNGKVDARSDRTGEVIFKDNFSSAIAGVVEGDYRMDGHIQLICCSVDGEIRGYLPGTAEMRGNLMDTSAEQDLIRELSQKKQNLLLELRNYEENAKAELASPLNEADGHRGIIPANTRLHTTLSVSLGNETQTAHTELRISTSNDTIIRAVLIFAEGIFTGESHVVHPSIHNLSSSICIPIVPPKDVPVDLHLKAFVGYRSSTQFHVFESTRQLPRFSMYALTSLDPASEPISYVNFTIAERAQRVVVWLGQNFLLPEDTHIQNAPFQVCFTSLRNGGHLHIKIKLSGEITINTDDIDLAGDIIQSMASFFAIEDLQVEADFPVYFEELRKVLVKVDEYHSVHQKLSADMADHSNLIRSLLVGAEDARLMRDMKTMKSRYMELYDLNRDLLNGYKIRCNNHTELLGNLKAVNQAIQRAGRLRVGKPKNQVITACRDAIRSNNINTLFKIMRVGTASS

binding (MC1R-mEmerald): binds
B2: endogenous BBS2 (protein, UniProt Q9BXC9 1-721)
chain: MLLPVFTLKLRHKISPRMVAIGRYDGTHPCLAAATQTGKVFIHNPHTRNQHVSASRVFQSPLESDVSLLSINQAVSCLTAGVLNPELGYDALLVGTQTNLLAYDVYNNSDLFYREVADGANAIVLGTLGDISSPLAIIGGNCALQGFNHEGSDLFWTVTGDNVNSLALCDFDGDGKKELLVGSEDFDIRVFKEDEIVAEMTETEIVTSLCPMYGSRFGYALSNGTVGVYDKTSRYWRIKSKNHAMSIHAFDLNSDGVNELITGWSNGKVDARSDRTGEVIFKDNFSSAIAGVVEGDYRMDGHIQLICCSVDGEIRGYLPGTAEMRGNLMDTSAEQDLIRELSQKKQNLLLELRNYEENAKAELASPLNEADGHRGIIPANTRLHTTLSVSLGNETQTAHTELRISTSNDTIIRAVLIFAEGIFTGESHVVHPSIHNLSSSICIPIVPPKDVPVDLHLKAFVGYRSSTQFHVFESTRQLPRFSMYALTSLDPASEPISYVNFTIAERAQRVVVWLGQNFLLPEDTHIQNAPFQVCFTSLRNGGHLHIKIKLSGEITINTDDIDLAGDIIQSMASFFAIEDLQVEADFPVYFEELRKVLVKVDEYHSVHQKLSADMADHSNLIRSLLVGAEDARLMRDMKTMKSRYMELYDLNRDLLNGYKIRCNNHTELLGNLKAVNQAIQRAGRLRVGKPKNQVITACRDAIRSNNINTLFKIMRVGTASS
